Test results reported in PubChem BioAssay AID504444 (National Center for Advancing Translational Sciences (NCATS), 2011).
The whole screen tested about 360,000 compounds, of which about 7,500 (2.1%) were called active. Inconclusive means that the source gave no clear call. Such entries were picked first, then a sample of the others. The call rests on the fitted dose curve; in most records, active means well fitted inhibition curve with a large enough effect; inconclusive means small, poorly fitted or top-dose-only effect, or effect the other way; inactive means flat fitted curve, though single readings scatter. Where the call is inconclusive, the potency comes from a doubtful curve fit.

experiment: Nrf2 qHTS screen for inhibitors; conditions: A549 ARE-Fluc reporter, luciferase luminescence, 18-24 h; activity change, negative = inhibition: at 46 µM (top of the series); further: nearly all actives have a fitted effect of over 60% in size
Summary of the method: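 Nrf2 function is reported as luminescence of an ARE-controlled luciferase in A549 cells. Compounds were tested at several concentrations, and a CellTiter-Fluor read on the same wells flagged cytotoxicity.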
On the % scale 0 is the no-effect control and ±100 the full control effect; potency means the concentration at half of the fitted maximal effect.

Structure (SMILES)	Potency	activity change, negative = inhibition
Cc1ccc(/C=N/NC(=O)Cc2c(F)cccc2Cl)s1	inconclusive: 11.6 µM [activator, partial curve]	–
COc1cccc(NC(=O)c2sc(NC(=O)c3ccncc3)nc2C)c1	active: 11.6 µM	–
Cn1nnnc1Sc1ncnc2scc(-c3ccc([N+](=O)[O-])cc3)c12	active: 18.4 µM	–
COc1ccc(-c2cc(C(=O)NCCCn3ccnc3)no2)cc1OC	inconclusive: 20.6 µM [falling, single point]	–
CC(c1ccccn1)N(C)C(=O)c1ccc2nc(Cc3ccccc3F)oc2c1 (stereo not given)	inconclusive: 10.3 µM [activator, partial curve]	–
CCc1cccc(C)c1NC(=O)c1cnn(-c2ccc(OC)cc2)c1C1CCN(C(=O)OC(C)(C)C)CC1	active: 23.1 µM	–
COCc1ccc(O)c2ncccc12	–	inactive: -19.7%
Cc1cccc(NC(=O)CNC(=O)COc2ccc(-c3ccc(C#N)cc3)cc2)c1C	–	inactive: -25.2%
FC(F)(F)c1cccc(N2CCN(C(=S)NC3CCCCC3)CC2)c1	active: 16.4 µM	–
CCOc1ccc(S(=O)(=O)N2CCC(C(=O)NC3CCCCC3)CC2)cc1	inconclusive: 4.11 µM [falling, partial curve, poor fit]	–
S=C(Nc1ccccc1)Nc1ccccc1Br	inconclusive: 16.4 µM [activator, partial curve, poor fit]	–
COc1ccc(NS(=O)(=O)c2ccc(C(=O)N3CCN(c4ccc(F)cc4)CC3)cc2)cc1	inconclusive: 29.1 µM [falling, single point]	–
Nc1nc(Sc2ccc([N+](=O)[O-])c3nonc23)c2[nH]cnc2n1	inconclusive: 8.2 µM [falling, partial curve]	–
COCC(C)NC(=O)CSc1nc(-c2ccccc2)c(-c2ccccc2)o1 (stereo not given)	inconclusive: 18.4 µM [falling, partial curve, poor fit]	–
COc1ccc(N2CCN(S(=O)(=O)c3ccc(Br)s3)CC2)cc1	–	inactive: -29.8%
Cc1ccc2c(C)c(C(=O)N3CCN(Cc4ccc5c(c4)OCO5)CC3)oc2c1C	inconclusive: 14.6 µM [activator, partial curve]	–
O=C1OCC2=C1C(c1ccc(F)cc1)Sc1ccccc1N2 (stereo not given)	–	inactive: -27.4%
O=C(COc1ccccc1[N+](=O)[O-])Nc1cccnc1	inconclusive: 29.1 µM [activator, single point]	–
CCN(CC)CCCNc1cc(C)nc2cc(-c3cccs3)nn12	inconclusive: 23.1 µM [activator, single point]	–
CCc1cccc(CC)c1NC(=S)NCCc1c(C)[nH]c2ccc(C)cc12	active: 16.4 µM	–

Individual results from the entries so far:
Under Potency, Cc1ccc(/C=N/NC(=O)Cc2c(F)cccc2Cl)s1 is listed with inconclusive: 11.6 µM [activator, partial curve]
Under activity change, negative = inhibition, COc1ccc(N2CCN(S(=O)(=O)c3ccc(Br)s3)CC2)cc1 is listed with inactive: -29.8%
